Test results from article PMC7980224.
These are yes or no findings as the source states them, for the method shown. For some of these results: Binding seen in cells or lysates may run through a third protein. Some results given as binding are weak or reduced against the parent protein; the word gives no strength. Each block holds one substance with its values, some of them ahead of it.

Protein sequences, listed by entry. Tags and fused reporters are not part of them.
UniProt Q6P9B9: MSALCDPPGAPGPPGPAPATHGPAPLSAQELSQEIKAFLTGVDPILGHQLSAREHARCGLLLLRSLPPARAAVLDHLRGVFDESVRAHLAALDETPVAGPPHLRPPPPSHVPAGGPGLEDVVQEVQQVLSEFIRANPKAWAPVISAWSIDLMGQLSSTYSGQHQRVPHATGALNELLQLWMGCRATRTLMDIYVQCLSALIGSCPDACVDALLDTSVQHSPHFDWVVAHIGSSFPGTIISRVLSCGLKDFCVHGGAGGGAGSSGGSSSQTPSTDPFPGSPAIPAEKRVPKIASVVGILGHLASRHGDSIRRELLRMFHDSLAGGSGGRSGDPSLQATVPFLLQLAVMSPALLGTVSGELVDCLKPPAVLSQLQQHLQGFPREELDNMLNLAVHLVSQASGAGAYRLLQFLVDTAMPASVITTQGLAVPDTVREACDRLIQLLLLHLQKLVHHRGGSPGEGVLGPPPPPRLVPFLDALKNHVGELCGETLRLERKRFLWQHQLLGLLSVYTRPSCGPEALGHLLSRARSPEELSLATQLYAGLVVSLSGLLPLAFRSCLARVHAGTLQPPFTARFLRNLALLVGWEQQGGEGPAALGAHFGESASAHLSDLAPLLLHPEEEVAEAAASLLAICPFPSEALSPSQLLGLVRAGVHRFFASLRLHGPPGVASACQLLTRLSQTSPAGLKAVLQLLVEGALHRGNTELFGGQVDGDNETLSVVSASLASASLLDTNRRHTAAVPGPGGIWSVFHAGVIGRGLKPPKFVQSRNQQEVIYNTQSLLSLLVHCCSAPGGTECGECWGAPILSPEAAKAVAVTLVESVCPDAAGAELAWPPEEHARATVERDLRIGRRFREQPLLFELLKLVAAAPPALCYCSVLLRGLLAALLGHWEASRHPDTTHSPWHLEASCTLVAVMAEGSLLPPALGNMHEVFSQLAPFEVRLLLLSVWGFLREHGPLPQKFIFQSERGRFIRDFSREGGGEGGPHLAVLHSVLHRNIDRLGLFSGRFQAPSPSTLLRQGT
UniProt Q96HW7: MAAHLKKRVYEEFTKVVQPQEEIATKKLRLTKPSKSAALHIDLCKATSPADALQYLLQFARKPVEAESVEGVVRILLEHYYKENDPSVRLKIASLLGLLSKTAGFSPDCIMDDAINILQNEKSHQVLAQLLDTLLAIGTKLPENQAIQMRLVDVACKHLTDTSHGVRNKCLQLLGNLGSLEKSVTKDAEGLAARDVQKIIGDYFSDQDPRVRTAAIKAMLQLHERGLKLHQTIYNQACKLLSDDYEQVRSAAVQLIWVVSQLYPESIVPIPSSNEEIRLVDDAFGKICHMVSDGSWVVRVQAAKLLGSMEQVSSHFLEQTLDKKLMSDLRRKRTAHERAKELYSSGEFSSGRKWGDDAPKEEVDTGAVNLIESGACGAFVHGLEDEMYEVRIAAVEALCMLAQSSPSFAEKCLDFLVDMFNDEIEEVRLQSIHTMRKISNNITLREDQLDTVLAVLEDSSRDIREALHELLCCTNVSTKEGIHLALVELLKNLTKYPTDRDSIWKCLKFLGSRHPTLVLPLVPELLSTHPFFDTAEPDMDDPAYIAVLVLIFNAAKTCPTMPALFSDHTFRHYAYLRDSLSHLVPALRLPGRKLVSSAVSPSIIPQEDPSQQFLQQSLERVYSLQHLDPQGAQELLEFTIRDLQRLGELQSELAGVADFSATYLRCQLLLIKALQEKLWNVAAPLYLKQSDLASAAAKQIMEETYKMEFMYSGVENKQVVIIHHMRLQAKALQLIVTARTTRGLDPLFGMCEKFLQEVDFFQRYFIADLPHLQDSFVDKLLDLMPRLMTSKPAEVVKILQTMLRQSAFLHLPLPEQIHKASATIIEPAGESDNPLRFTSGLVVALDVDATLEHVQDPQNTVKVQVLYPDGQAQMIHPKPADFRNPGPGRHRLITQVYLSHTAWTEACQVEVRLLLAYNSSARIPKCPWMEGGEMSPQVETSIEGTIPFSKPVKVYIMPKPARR
UniProt Q9NVR2: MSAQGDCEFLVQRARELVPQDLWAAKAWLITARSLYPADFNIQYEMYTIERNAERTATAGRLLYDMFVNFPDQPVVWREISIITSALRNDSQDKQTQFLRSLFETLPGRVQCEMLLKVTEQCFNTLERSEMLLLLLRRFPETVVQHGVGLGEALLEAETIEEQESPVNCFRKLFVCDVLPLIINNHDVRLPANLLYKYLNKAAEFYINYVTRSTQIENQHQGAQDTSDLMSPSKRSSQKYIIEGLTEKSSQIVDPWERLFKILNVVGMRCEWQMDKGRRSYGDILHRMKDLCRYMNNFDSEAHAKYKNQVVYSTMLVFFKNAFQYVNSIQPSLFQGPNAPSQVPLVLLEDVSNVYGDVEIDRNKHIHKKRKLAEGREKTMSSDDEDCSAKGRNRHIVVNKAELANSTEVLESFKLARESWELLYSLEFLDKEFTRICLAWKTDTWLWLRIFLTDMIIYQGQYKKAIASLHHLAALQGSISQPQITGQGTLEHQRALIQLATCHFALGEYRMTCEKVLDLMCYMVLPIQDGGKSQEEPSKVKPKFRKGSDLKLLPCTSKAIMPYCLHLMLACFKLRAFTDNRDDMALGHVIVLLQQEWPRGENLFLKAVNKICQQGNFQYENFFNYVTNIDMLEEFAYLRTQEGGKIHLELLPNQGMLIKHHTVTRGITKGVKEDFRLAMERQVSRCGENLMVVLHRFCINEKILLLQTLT
UniProt Q9NVM9: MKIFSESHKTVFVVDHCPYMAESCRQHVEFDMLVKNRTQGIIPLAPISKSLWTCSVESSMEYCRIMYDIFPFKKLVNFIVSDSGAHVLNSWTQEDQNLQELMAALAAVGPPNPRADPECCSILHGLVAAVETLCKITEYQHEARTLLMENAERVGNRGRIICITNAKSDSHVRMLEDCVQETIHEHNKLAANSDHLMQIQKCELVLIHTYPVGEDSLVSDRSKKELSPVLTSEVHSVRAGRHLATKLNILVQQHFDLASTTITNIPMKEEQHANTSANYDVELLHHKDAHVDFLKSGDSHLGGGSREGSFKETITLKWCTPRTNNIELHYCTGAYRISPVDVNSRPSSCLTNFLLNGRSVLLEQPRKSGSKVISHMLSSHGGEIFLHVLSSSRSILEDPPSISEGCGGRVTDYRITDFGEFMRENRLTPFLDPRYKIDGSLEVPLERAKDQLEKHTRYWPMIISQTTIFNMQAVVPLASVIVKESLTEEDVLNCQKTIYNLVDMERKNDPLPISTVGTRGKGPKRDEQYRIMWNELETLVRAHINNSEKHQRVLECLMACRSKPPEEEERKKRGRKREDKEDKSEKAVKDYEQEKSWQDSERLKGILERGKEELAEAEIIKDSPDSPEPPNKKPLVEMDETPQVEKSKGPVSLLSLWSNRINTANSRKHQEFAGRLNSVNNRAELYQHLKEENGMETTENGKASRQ
UniProt Q75QN2: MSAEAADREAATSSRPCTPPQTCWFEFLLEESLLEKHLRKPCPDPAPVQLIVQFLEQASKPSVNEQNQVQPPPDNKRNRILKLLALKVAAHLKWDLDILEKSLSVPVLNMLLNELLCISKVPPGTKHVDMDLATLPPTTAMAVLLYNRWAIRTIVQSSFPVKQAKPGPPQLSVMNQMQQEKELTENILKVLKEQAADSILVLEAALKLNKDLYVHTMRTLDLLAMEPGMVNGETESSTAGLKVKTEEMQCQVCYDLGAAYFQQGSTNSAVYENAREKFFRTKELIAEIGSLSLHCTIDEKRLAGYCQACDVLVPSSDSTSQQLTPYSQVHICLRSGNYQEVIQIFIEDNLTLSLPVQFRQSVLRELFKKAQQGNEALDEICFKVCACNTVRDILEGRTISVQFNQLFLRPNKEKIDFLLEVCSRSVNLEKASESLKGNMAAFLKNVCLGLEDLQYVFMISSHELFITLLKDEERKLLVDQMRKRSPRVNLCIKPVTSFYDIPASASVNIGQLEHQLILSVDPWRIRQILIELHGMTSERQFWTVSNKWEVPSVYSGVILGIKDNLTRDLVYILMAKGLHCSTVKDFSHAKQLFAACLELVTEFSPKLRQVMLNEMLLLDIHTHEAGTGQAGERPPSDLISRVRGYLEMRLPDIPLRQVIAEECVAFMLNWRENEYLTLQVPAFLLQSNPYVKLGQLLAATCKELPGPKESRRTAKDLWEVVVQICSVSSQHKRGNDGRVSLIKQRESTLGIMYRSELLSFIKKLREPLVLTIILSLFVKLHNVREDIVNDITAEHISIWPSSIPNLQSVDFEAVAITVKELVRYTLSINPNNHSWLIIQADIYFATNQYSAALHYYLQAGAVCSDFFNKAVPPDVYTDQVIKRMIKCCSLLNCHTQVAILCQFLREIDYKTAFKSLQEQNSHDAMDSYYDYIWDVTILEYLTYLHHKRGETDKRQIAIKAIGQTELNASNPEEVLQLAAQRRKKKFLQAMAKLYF
UniProt Q9NV88: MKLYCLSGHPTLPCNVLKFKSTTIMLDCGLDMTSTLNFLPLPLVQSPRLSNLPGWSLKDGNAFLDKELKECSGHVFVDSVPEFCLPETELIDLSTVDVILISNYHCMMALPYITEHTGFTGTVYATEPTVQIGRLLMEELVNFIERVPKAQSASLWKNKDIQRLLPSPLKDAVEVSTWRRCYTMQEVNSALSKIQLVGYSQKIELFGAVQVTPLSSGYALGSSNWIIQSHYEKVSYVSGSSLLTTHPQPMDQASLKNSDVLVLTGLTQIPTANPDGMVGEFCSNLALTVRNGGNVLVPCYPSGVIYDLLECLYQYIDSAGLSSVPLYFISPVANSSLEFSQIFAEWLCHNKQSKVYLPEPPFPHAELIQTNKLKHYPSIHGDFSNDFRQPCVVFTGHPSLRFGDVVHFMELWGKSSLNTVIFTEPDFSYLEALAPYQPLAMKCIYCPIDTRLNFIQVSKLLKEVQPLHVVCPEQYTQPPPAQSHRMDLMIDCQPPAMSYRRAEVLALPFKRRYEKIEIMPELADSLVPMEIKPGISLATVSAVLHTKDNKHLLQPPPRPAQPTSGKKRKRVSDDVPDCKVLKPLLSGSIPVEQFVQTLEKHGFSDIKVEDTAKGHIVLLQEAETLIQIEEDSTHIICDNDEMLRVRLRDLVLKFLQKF
UniProt Q96SY0: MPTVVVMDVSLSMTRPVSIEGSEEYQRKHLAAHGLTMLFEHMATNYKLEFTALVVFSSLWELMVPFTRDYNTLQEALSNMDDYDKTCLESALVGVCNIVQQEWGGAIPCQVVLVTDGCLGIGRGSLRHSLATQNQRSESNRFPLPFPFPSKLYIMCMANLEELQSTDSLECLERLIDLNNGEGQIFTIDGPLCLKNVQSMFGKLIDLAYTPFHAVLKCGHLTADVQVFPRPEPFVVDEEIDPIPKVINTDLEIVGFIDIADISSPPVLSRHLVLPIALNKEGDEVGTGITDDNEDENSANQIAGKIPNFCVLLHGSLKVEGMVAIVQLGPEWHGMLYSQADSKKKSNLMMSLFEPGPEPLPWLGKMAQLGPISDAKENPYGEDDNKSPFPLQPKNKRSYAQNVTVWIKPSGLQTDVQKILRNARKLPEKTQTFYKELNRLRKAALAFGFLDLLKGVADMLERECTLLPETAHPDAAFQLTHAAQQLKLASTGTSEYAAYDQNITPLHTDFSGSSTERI

Tests used:
[1] = target: INTS5 (N-terminally 8xHis-tagged), recombinant (UniProt Q6P9B9); experiment: SEC; subunits co-expressed in Hi5 insect cells, complex purified by Ni-NTA and streptavidin agarose, 50 uL at 1-2 mg/ml on Superose 6 Increase 3.2/300 in 150 mM KCl, 20 mM HEPES KOH pH 7.8; fractions on SDS-PAGE; both purified
[2] = target: INTS4 (N-terminally 8xHis-tagged), recombinant (UniProt Q96HW7); experiment: cryo-EM structure; INTS4/9/11 co-expressed in insect cells, tandem affinity purified, cross-linked with glutaraldehyde on a glycerol gradient (GraFix); single-particle cryo-EM, 3.5 Å overall; both purified
[3] = target: INTS4 (N-terminally 8xHis-tagged), recombinant (UniProt Q96HW7); experiment: SEC; subunits co-expressed in Hi5 insect cells, complex purified by Ni-NTA and streptavidin agarose, 50 uL at 1-2 mg/ml on Superose 6 Increase 3.2/300 in 150 mM KCl, 20 mM HEPES KOH pH 7.8; fractions on SDS-PAGE; both purified
[4] = target: INTS4/9/11 ternary complex (Integrator cleavage module), recombinant (UniProt Q96HW7); experiment: SEC; purified modules mixed in 1:1 molar ratio, 30 min on ice, Superose 6 Increase 3.2/300 in 150 mM KCl, 20 mM HEPES KOH pH 7.8; shift in elution volume; both purified
[5] = target: INTS4/9/11 module co-expressed with INTS10/13/14 (one tag on each module) (UniProt Q96HW7); experiment: pull-down; modules INTS4/9/11 and INTS10/13/14 co-expressed in Hi5 cells, tandem affinity purification with one tag on each module
[6] = target: INTS10 (N-terminally 8xHis-tagged), recombinant (UniProt Q9NVR2); experiment: SEC; subunits co-expressed in Hi5 insect cells, complex purified by Ni-NTA and streptavidin agarose, 50 uL at 1-2 mg/ml on Superose 6 Increase 3.2/300 in 150 mM KCl, 20 mM HEPES KOH pH 7.8; fractions on SDS-PAGE; both purified
[7] = target: INTS13 (N-terminally SBP-tagged), recombinant (UniProt Q9NVM9); experiment: as above

binding [1]: binds
Substance: INTS8 (N-terminally SBP-tagged), recombinant (from UniProt Q75QN2 1-995)

binding [2]: binds
binding [3]: binds
Substance: INTS9, recombinant (from UniProt Q9NV88 1-658)

binding [4]: binds
Substance: INTS10/13/14 complex, recombinant (from UniProt Q9NVR2 1-710; Q9NVM9 1-706; Q96SY0 1-518)

binding [5]: binds
Substance: INTS10/13/14 module co-expressed with INTS4/9/11 (one tag on each module) (from UniProt Q9NVR2 1-710; Q9NVM9 1-706; Q96SY0 1-518) (complex)

binding [6]: binds
Substance: INTS13 (N-terminally SBP-tagged), recombinant (from UniProt Q9NVM9 1-706)

binding [7]: binds
Substance: INTS14, recombinant (from UniProt Q96SY0 1-518)
